According to the supplement of paper PMC12823440, “Inhibitors supercharge kinase turnover through native proteolytic circuits” (Nature, 2025):
Structures can show the parent of a compound that is named as a salt. This is one part of the list. Hit calls seldom repeat between salt and free forms of one compound.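 In K562 cells expressing nanoluciferase-fused kinases, luminescence was recorded at 4 h intervals between 2 and 18 h, normalized as percent of control with DMSO at 100% and a positive control at 0%. A significant (2 sigma) signal drop marks a time point as decreased. The authors' rule for a hit is not shown and takes in more than the number of time points.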

Chains of the proteins cited; added tags and fusions are not shown. Lines headed by an entry give the natural chain unless they say otherwise; changes in a name come on top.
UniProt P31749: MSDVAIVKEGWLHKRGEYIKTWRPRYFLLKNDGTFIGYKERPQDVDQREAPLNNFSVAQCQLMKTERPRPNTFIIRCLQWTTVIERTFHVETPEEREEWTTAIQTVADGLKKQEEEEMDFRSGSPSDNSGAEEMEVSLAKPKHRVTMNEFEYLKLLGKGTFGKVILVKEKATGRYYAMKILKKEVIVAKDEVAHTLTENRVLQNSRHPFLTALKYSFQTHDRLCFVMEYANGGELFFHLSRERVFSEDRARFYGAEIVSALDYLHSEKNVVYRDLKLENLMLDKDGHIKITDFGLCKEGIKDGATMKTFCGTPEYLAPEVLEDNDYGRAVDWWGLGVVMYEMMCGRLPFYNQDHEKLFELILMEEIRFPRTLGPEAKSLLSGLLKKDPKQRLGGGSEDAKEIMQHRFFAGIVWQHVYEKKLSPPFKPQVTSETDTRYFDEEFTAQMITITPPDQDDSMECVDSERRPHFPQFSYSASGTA
UniProt Q9UM73: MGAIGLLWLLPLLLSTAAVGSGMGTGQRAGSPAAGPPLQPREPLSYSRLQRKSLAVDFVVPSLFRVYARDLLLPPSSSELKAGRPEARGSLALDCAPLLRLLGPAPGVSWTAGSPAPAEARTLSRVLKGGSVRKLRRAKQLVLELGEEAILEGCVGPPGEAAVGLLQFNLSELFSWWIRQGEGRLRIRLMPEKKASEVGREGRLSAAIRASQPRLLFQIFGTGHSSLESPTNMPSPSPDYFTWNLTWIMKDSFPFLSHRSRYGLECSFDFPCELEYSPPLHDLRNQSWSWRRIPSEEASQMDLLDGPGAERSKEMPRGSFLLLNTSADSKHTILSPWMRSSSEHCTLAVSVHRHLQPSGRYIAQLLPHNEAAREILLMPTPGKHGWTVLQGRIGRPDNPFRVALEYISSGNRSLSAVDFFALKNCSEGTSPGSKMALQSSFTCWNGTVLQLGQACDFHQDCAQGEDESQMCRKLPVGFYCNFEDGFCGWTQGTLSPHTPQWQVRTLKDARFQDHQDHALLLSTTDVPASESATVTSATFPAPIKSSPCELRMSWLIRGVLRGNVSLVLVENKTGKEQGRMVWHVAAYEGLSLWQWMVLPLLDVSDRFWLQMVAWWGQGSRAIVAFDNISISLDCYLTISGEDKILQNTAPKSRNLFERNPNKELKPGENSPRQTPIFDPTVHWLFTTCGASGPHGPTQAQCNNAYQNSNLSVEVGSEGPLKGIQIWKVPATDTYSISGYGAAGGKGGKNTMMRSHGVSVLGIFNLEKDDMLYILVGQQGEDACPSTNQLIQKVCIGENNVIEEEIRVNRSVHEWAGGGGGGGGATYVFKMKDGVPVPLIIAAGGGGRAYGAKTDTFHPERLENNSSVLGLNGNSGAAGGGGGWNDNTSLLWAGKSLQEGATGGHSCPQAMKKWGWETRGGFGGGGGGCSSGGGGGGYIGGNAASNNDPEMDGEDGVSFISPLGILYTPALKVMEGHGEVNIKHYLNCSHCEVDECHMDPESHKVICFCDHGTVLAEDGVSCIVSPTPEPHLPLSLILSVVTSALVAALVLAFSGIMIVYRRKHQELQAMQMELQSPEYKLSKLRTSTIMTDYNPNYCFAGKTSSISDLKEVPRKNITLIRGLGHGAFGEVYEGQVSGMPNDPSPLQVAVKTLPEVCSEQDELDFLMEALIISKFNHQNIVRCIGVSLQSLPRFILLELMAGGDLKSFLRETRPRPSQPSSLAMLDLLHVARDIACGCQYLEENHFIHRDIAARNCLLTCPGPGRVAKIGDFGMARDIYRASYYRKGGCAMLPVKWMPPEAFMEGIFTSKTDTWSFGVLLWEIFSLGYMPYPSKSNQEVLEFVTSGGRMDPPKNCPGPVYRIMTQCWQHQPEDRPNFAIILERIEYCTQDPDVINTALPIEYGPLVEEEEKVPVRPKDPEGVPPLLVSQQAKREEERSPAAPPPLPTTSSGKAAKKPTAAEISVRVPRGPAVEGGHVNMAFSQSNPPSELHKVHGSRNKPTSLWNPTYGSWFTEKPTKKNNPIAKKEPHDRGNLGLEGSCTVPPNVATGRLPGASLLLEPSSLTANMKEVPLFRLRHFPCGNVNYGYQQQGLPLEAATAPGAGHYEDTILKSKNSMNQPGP
UniProt P10398: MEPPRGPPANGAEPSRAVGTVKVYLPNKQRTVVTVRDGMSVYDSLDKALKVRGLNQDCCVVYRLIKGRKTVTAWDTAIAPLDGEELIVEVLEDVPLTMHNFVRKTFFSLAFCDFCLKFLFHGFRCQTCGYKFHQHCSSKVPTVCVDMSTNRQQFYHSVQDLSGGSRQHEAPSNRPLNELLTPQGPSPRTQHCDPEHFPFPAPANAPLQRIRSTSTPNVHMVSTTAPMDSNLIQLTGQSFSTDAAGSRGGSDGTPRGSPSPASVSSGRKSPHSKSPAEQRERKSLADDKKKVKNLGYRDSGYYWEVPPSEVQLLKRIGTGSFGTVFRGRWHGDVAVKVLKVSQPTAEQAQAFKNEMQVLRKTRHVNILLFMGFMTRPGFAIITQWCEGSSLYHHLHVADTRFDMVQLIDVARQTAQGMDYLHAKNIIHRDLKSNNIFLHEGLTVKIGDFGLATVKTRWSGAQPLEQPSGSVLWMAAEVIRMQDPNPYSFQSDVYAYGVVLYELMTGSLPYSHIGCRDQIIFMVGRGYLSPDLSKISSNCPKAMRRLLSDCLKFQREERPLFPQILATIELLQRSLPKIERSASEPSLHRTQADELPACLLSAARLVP
UniProt O14965: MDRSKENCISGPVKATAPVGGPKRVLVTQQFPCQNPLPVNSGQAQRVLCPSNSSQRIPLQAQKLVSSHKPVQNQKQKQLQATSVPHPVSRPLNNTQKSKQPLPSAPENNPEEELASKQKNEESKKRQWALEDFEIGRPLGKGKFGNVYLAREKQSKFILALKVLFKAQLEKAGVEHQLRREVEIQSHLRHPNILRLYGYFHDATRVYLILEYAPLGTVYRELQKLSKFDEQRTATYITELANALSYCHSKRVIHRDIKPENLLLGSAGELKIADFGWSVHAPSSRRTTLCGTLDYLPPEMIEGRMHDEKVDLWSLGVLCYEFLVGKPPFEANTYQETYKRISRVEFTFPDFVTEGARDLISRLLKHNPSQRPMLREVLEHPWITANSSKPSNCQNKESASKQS
UniProt Q96GD4, whole entry: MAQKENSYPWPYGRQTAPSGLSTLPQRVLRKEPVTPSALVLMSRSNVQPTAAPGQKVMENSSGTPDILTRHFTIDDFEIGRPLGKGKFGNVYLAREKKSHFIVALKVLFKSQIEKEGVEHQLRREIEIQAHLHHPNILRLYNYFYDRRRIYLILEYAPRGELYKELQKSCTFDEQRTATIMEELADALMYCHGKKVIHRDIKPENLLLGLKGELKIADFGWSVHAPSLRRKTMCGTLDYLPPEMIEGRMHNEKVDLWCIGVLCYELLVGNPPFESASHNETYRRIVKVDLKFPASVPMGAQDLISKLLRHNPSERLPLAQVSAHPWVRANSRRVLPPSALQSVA
UniProt Q9UQB9: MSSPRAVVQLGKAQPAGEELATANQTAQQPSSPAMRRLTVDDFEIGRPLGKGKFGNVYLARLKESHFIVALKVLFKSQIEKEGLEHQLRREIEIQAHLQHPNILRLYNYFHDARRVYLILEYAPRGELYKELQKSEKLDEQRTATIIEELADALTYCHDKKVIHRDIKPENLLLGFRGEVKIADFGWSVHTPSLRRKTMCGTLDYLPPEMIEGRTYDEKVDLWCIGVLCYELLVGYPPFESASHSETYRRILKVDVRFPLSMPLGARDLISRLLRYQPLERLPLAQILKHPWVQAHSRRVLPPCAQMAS
UniProt P51451: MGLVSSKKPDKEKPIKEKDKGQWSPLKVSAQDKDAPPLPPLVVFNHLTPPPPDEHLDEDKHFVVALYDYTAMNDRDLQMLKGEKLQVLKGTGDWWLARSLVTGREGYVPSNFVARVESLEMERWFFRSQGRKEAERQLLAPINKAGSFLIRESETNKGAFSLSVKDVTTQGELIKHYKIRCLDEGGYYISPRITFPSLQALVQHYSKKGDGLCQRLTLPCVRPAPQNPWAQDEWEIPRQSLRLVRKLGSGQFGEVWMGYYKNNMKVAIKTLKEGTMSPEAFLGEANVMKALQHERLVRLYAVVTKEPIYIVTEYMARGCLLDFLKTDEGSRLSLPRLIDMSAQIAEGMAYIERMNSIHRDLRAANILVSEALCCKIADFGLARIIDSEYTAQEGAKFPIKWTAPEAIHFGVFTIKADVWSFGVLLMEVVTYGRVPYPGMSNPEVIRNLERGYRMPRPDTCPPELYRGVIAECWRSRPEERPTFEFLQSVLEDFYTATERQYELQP
UniProt P51813: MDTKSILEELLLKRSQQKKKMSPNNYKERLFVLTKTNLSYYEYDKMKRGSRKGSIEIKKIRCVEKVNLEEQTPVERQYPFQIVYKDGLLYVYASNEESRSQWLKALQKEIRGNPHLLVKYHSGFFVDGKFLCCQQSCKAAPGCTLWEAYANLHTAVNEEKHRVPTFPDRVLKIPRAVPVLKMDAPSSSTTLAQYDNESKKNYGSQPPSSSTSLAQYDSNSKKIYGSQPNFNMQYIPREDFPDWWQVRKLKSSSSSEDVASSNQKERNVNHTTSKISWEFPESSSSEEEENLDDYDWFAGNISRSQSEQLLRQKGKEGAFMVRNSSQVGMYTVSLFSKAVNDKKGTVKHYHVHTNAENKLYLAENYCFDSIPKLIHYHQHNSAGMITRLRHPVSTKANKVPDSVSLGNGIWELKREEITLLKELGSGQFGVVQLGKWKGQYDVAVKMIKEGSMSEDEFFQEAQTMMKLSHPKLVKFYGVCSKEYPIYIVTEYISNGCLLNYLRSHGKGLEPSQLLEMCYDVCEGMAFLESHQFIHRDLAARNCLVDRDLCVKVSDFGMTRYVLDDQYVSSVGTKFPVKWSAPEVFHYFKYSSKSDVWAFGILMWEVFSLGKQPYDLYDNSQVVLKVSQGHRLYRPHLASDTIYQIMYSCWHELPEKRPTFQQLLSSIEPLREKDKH
UniProt P15056, whole entry, looked up: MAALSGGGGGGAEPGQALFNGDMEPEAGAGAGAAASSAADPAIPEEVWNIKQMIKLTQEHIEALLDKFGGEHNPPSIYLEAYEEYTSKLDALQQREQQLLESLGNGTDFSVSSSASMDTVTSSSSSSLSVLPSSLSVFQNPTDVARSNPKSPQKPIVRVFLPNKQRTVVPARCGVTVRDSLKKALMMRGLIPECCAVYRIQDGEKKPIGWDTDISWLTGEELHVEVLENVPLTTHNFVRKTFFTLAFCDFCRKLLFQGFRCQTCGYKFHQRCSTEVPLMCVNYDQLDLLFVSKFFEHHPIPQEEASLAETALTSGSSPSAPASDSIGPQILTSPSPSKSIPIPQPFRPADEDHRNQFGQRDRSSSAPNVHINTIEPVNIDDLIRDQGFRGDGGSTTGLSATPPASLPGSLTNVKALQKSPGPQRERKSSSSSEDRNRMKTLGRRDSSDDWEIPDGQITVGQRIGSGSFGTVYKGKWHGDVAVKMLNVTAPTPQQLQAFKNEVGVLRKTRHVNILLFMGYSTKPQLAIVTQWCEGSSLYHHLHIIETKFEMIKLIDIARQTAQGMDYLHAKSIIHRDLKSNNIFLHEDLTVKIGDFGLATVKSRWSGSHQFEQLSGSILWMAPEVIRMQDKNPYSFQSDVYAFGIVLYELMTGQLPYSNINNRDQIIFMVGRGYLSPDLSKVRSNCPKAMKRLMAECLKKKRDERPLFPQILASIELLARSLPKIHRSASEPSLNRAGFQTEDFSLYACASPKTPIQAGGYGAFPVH

Tests used:
Assay in all cases: kinase-Nluc reporter destabilization hit call (1 = scored as downregulated) (binary); higher = compound decreases kinase abundance
Conditions in all cases: K562; 2-18 h
ABL1 = ABL1 (UniProt P00519)
AKT1 = AKT1 (UniProt P31749)
ALK = ALK (UniProt Q9UM73)
ARAF = ARAF (UniProt P10398)
AURKA = AURKA (UniProt O14965)
AURKB = AURKB (UniProt Q96GD4)
AURKC = AURKC (UniProt Q9UQB9)
BLK = BLK (UniProt P51451)
BMX = BMX (UniProt P51813)
BRAF = BRAF (UniProt P15056)

Measured: kinase-Nluc reporter destabilization hit call

Nc1nccc(Oc2ccc(NC(=O)c3c[nH]cc(-c4ccc(F)cc4)c3=O)cc2F)c1Cl (10 µM)
inactive: ABL1 = 0 | AKT1 = 0 | ALK 0 | ARAF 0 | AURKA 0 | AURKB 0 | AURKC 0 | BLK 0 | BMX 0 | BRAF 0

CCn1c(=O)c(-c2cc[nH]n2)cc2c(C)nc(N)nc21 [Voxtalisib] (10 µM)
inactive: ABL1 = 0 | AKT1 = 0 | ALK 0 | ARAF 0 | AURKA 0 | AURKB 0 | AURKC 0 | BLK 0 | BMX 0 | BRAF 0

O=C(NC1CCOCC1)c1ccc(-c2cc(-c3c[nH]nc3-c3ccccn3)ccn2)cc1 (10 µM)
inactive: ABL1 = 0 | AKT1 = 0 | ALK 0 | ARAF 0 | AURKA 0 | AURKB 0 | AURKC 0 | BLK 0 | BMX 0 | BRAF 0

Cc1cc(-c2ccnc(Nc3cnn(C)c3)n2)ccc1CNC(=O)N1CC(OC(C)C)C1 (10 µM)
inactive: ABL1 = 0 | AKT1 = 0 | ALK 0 | ARAF 0 | AURKA 0 | AURKB 0 | AURKC 0 | BLK 0 | BMX 0 | BRAF 0

CCN(CC)c1cc2oc(=O)c(-c3nc4ccccc4o3)cc2cc1C (2.5 µM)
inactive: ABL1 = 0 | AKT1 = 0 | ALK 0 | ARAF 0 | AURKA 0 | AURKB 0 | AURKC 0 | BLK 0 | BMX 0 | BRAF 0

2 records picked at random from the list so far:
CCN(CC)c1cc2oc(=O)c(-c3nc4ccccc4o3)cc2cc1C (2.5 µM)
inactive: ABL1 = 0 | AKT1 = 0 | ALK 0 | ARAF 0 | AURKA 0 | AURKB 0 | AURKC 0 | BLK 0 | BMX 0 | BRAF 0

O=C(NC1CCOCC1)c1ccc(-c2cc(-c3c[nH]nc3-c3ccccn3)ccn2)cc1 (10 µM)
inactive: ABL1 = 0 | AKT1 = 0 | ALK 0 | ARAF 0 | AURKA 0 | AURKB 0 | AURKC 0 | BLK 0 | BMX 0 | BRAF 0

Additional entries

Cn1cnc([N+](=O)[O-])c1C[N+](C)(C)C/C=C/C(=O)Nc1cc2c(Nc3ccc(Cl)c(Br)c3)ncnc2cn1 [Tarloxotinib (bromide)] (10 µM)
inactive: ABL1 = 0 | AKT1 = 0 | ALK 0 | ARAF 0 | AURKA 0 | AURKB 0 | AURKC 0 | BLK 0 | BMX 0 | BRAF 0

CNc1nc(Nc2ccc(C(=O)N3CCOCC3)cc2OC)ncc1Cl (2.5 µM)
inactive: ABL1 = 0 | AKT1 = 0 | ALK 0 | ARAF 0 | AURKA 0 | AURKB 0 | AURKC 0 | BLK 0 | BMX 0 | BRAF 0

Oc1ccc(/C=C/c2cc(O)cc(O)c2)cc1 [Resveratrol] (10 µM)
inactive: ABL1 = 0 | AKT1 = 0 | ALK 0 | ARAF 0 | AURKA 0 | AURKB 0 | AURKC 0 | BLK 0 | BMX 0 | BRAF 0

O=C(Nc1cccc(Nc2ncc(Br)c(NCCc3cnc[nH]3)n2)c1)N1CCCC1 (10 µM)
inactive: ABL1 = 0 | AKT1 = 0 | ALK 0 | ARAF 0 | AURKA 0 | AURKB 0 | AURKC 0 | BLK 0 | BMX 0 | BRAF 0

O=c1cc(N2CCOCC2)nc2c3ccccc3ccn12 [Compound 401] (10 µM)
inactive: ABL1 = 0 | AKT1 = 0 | ALK 0 | ARAF 0 | AURKA 0 | AURKB 0 | AURKC 0 | BLK 0 | BMX 0 | BRAF 0

COc1ccc(/C=C/C(=O)C2(C(=O)/C=C/c3ccc(OC)c(OC)c3)CCCCC2)cc1OC (2.5 µM)
inactive: ABL1 = 0 | AKT1 = 0 | ALK 0 | ARAF 0 | AURKA 0 | AURKB 0 | AURKC 0 | BLK 0 | BMX 0 | BRAF 0

CC(=O)N1CCC(c2cc(-c3ccc(NC(=O)c4cccn(-c5ccc(F)cc5)c4=O)cc3F)c3c(N)ncnn23)CC1 (0.5 µM)
inactive: ABL1 = 0 | AKT1 = 0 | ALK 0 | ARAF 0 | AURKA 0 | AURKB 0 | AURKC 0 | BLK 0 | BMX 0 | BRAF 0

C#Cc1cccc(Nc2ncnc3cc(OC)c(OCCCCCCC(=O)NO)cc23)c1 (2.5 µM)
inactive: ABL1 = 0 | AKT1 = 0 | ALK 0 | ARAF 0 | AURKA 0 | AURKB 0 | AURKC 0 | BLK 0 | BMX 0 | BRAF 0

C=CC(=O)N1CCC[C@H](n2c(=O)n(-c3ccc(Oc4ccccc4)cc3)c3c(N)ncnc32)C1 [ONO-4059 (analog)] (10 µM)
inactive: ABL1 = 0 | AKT1 = 0 | ALK 0 | ARAF 0 | AURKA 0 | AURKB 0 | AURKC 0 | BLK 0 | BMX 0 | BRAF 0

Cn1cc(-c2c[nH]c3ncnc(N4CCOCC4)c23)cc1C#N (10 µM)
inactive: ABL1 = 0 | AKT1 = 0 | ALK 0 | ARAF 0 | AURKA 0 | AURKB 0 | AURKC 0 | BLK 0 | BMX 0 | BRAF 0

CN1C(=O)[C@@H](NC(=O)c2n[nH]c(Cc3ccccc3)n2)COc2ccccc21 (10 µM)
inactive: ABL1 = 0 | AKT1 = 0 | ALK 0 | ARAF 0 | AURKA 0 | AURKB 0 | AURKC 0 | BLK 0 | BMX 0 | BRAF 0

CNc1nc(Nc2cn(C(C)(C)C#N)nc2C)ncc1C(F)(F)F (10 µM)
inactive: ABL1 = 0 | AKT1 = 0 | ALK 0 | ARAF 0 | AURKA 0 | AURKB 0 | AURKC 0 | BLK 0 | BMX 0 | BRAF 0

CN(c1ccc(NC(=O)Nc2ccc(OC(F)(F)F)cc2)cc1)c1ccnc(Nc2cccc(S(N)(=O)=O)c2)n1 (2.5 µM)
inactive: ABL1 = 0 | AKT1 = 0 | ALK 0 | ARAF 0 | AURKA 0 | AURKB 0 | AURKC 0 | BLK 0 | BMX 0 | BRAF 0

Cc1nn(C)c2c1C(c1ccc(C(F)(F)F)cc1)C(C#N)=C(N)O2 (stereo not given) (10 µM)
inactive: ABL1 = 0 | AKT1 = 0 | ALK 0 | ARAF 0 | AURKA 0 | AURKB 0 | AURKC 0 | BLK 0 | BMX 0 | BRAF 0

FC(F)(F)c1ccc(/C=C/c2nc(COc3ccc(CCCCn4ccnn4)cc3)co2)cc1 [Mubritinib] (10 µM)
inactive: ABL1 = 0 | AKT1 = 0 | ALK 0 | ARAF 0 | AURKA 0 | AURKB 0 | AURKC 0 | BLK 0 | BMX 0 | BRAF 0

CC/C(=N\NC(=O)c1ccnc(NCCCN2CCOCC2)c1)c1ccc(Cl)cc1O (2.5 µM)
inactive: ABL1 = 0 | AKT1 = 0 | ALK 0 | ARAF 0 | AURKA 0 | AURKB 0 | AURKC 0 | BLK 0 | BMX 0 | BRAF 0

CC(C)CNc1ccnc(NCc2csc(-c3ccccc3)n2)n1 [KHS101 hydrochloride] (2.5 µM)
inactive: ABL1 = 0 | AKT1 = 0 | ALK 0 | ARAF 0 | AURKA 0 | AURKB 0 | AURKC 0 | BLK 0 | BMX 0 | BRAF 0

C=CC(=O)N1C[C@H](COc2nc(Nc3cnn(C)c3)nc3[nH]cc(Cl)c23)[C@@H](OC)C1 (2.5 µM)
inactive: ABL1 = 0 | AKT1 = 0 | ALK 0 | ARAF 0 | AURKA 0 | AURKB 0 | AURKC 0 | BLK 0 | BMX 0 | BRAF 0

CC(C)C[C@@H](C(=O)Nc1ccn(C[C@@H](O)CO)n1)N1CC(Oc2ccccc2Cl)=CC1=O [Dorzagliatin] (10 µM)
inactive: ABL1 = 0 | AKT1 = 0 | ALK 0 | ARAF 0 | AURKA 0 | AURKB 0 | AURKC 0 | BLK 0 | BMX 0 | BRAF 0

COc1cc(-c2cn[nH]c2)ccc1C(=O)Nc1ccc2c(c1)CCNCC2 (10 µM)
inactive: ABL1 = 0 | AKT1 = 0 | ALK 0 | ARAF 0 | AURKA 0 | AURKB 0 | AURKC 0 | BLK 0 | BMX 0 | BRAF 0

O=C(NCc1cccc(O)c1)Nc1nc(-c2ccncc2)cs1 (10 µM)
inactive: ABL1 = 0 | AKT1 = 0 | ALK 0 | ARAF 0 | AURKA 0 | AURKB 0 | AURKC 0 | BLK 0 | BMX 0 | BRAF 0

COc1ccc2cc3[n+](cc2c1OC)CCc1cc(O)c(O)cc1-3 [Demethyleneberberine] (10 µM)
inactive: ABL1 = 0 | AKT1 = 0 | ALK 0 | ARAF 0 | AURKA 0 | AURKB 0 | AURKC 0 | BLK 0 | BMX 0 | BRAF 0

C[C@H](Nc1ncnc2[nH]cnc12)c1cc2ccc(F)cc2nc1-c1ccccn1 (10 µM)
inactive: ABL1 = 0 | AKT1 = 0 | ALK 0 | ARAF 0 | AURKA 0 | AURKB 0 | AURKC 0 | BLK 0 | BMX 0 | BRAF 0

O=C(CNc1cccc(Cl)c1)NC1CCCN(c2ncnc3[nH]ccc23)C1 (stereo not given) (10 µM)
inactive: ABL1 = 0 | AKT1 = 0 | ALK 0 | ARAF 0 | AURKA 0 | AURKB 0 | AURKC 0 | BLK 0 | BMX 0 | BRAF 0

CCCNC(=O)Nc1ccc(Oc2ncnc3cc(OC)c(OC)cc23)cc1Cl (2.5 µM)
inactive: ABL1 = 0 | AKT1 = 0 | ALK 0 | ARAF 0 | AURKA 0 | AURKB 0 | AURKC 0 | BLK 0 | BMX 0 | BRAF 0
